Laboratory results taken from PMC12504418.
Results are given in words; binding and its absence hold for the method and conditions named. Binding seen in cells or lysates may run through a third protein. Some entries that bind do so weakly or less than the wild type. For some of these results: Sequences can lack the tags named with a protein.

Sequences of proteins named here, by UniProt entry; tags and fusion partners are left off. Residues count along the entry.
UniProt P07333, residues 20-972: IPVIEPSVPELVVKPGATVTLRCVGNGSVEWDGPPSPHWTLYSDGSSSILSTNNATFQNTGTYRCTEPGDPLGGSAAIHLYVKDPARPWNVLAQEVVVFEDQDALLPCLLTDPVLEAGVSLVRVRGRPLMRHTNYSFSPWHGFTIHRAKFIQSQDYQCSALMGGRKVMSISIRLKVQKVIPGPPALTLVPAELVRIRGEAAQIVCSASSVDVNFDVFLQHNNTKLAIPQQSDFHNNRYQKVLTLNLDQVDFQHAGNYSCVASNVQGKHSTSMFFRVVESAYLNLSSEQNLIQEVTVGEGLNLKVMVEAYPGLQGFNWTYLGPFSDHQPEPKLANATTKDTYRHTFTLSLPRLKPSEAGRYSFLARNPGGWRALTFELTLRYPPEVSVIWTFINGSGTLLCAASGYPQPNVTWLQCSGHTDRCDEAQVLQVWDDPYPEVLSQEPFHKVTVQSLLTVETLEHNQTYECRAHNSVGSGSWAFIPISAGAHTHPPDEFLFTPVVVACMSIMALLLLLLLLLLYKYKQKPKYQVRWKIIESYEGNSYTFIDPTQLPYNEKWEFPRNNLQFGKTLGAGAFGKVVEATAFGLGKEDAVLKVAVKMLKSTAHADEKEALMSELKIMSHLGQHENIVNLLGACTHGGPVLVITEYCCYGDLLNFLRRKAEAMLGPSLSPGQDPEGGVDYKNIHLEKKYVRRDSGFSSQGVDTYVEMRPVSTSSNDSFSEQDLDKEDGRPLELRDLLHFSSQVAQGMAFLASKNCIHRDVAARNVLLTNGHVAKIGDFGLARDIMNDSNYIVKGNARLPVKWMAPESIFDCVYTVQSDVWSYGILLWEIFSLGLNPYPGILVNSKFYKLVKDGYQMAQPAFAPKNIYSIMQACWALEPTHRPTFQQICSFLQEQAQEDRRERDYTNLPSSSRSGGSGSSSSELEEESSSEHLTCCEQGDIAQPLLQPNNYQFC
UniProt Q3TTA7: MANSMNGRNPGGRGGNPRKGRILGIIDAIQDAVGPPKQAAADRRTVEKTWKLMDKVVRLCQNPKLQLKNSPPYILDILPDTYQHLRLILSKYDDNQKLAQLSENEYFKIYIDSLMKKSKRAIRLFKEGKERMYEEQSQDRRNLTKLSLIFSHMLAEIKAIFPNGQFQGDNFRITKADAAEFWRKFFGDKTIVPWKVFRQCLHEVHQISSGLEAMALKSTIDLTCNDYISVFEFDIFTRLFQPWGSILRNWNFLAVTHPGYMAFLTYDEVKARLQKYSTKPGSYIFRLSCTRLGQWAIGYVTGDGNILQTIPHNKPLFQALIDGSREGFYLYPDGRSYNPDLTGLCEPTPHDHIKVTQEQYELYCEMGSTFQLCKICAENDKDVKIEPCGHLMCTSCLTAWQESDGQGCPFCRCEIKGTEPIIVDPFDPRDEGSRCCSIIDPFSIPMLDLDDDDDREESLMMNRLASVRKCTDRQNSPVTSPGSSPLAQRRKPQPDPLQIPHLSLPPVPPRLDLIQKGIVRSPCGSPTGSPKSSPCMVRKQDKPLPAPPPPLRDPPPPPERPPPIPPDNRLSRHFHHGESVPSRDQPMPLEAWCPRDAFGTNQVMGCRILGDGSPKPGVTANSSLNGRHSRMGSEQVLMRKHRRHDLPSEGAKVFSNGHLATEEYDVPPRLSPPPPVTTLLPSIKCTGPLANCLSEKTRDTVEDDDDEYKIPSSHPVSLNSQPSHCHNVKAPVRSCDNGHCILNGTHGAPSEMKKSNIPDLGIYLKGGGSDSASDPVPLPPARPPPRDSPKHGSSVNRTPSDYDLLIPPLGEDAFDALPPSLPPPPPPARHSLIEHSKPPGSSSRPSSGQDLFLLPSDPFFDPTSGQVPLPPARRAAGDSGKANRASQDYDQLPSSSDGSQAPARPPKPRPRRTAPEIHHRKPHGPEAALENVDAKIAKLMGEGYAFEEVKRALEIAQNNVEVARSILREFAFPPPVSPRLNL
UniProt Q13191: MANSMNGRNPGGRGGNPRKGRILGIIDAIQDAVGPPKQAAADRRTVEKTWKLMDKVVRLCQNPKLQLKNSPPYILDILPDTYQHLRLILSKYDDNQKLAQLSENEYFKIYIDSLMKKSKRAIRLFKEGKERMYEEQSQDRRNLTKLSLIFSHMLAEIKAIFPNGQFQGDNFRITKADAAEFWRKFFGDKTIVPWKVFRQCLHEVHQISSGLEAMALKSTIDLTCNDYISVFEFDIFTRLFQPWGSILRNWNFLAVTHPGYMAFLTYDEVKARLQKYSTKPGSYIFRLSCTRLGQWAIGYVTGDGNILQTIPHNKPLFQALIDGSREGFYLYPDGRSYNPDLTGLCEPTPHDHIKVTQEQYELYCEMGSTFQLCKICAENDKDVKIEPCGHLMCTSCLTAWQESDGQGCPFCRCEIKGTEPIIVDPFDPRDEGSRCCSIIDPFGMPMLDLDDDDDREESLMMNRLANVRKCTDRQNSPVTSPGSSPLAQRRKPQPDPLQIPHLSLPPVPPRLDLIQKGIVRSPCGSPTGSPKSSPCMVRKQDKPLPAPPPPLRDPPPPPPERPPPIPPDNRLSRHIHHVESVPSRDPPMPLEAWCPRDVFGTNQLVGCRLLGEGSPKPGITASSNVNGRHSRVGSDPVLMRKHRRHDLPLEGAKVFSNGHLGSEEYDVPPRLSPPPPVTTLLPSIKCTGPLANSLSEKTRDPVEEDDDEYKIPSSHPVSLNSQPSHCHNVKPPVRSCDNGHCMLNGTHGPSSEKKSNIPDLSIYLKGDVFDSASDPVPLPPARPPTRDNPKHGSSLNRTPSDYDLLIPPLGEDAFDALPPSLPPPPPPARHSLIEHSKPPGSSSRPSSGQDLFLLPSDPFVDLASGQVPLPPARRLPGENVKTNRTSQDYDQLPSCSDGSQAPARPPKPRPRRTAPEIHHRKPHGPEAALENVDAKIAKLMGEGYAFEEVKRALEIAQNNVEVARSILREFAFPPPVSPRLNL

Columns and labels:
[1] = biological target: T1, His-M-CSFR (macrophage colony-stimulating factor receptor) (mouse) (UniProt P09581); test: co-IP; HEK293T cells co-expressing His-M-CSFR and Myc-Cbl-b or Myc-c-Cbl; NP-40 lysis buffer, antibody overnight at 4 °C, Protein G-agarose, washes with NP-40 wash buffer and High Salt buffer; western blot
T1 sequence: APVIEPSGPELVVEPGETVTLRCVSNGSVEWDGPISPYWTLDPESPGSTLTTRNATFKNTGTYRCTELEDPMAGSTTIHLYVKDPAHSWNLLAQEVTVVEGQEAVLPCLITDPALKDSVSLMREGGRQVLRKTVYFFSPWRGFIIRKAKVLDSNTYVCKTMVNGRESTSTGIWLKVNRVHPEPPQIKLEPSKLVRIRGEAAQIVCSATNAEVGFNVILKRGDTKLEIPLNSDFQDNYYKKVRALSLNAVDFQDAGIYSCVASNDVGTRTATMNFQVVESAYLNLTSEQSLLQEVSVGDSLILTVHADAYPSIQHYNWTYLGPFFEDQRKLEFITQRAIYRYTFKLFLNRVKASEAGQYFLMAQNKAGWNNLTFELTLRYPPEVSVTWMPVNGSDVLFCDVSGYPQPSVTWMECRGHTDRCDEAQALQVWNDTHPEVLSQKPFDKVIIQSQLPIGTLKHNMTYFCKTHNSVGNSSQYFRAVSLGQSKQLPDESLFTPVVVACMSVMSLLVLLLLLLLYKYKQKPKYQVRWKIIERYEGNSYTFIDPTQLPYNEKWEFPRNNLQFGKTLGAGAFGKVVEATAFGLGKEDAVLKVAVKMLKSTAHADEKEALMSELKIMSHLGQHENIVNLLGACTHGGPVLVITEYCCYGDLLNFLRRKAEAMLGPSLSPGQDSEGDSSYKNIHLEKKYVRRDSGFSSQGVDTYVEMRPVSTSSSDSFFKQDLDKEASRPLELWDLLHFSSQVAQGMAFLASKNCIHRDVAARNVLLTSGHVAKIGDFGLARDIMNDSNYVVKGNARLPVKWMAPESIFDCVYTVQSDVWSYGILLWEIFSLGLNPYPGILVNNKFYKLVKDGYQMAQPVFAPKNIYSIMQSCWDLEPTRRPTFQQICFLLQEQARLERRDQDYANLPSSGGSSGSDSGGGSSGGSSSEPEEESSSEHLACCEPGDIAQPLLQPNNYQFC

[2] = biological target: T2, endogenous M-CSFR (mouse) (mouse (endogenous in MH-S and BMDMs)) (UniProt P09581); test: co-IP; endogenous proteins in MH-S cells after stimulation with M-CSF; NP-40 lysis buffer, Protein G-agarose; western blot
T2 sequence: T1 sequence

[3] = biological target: T2, endogenous M-CSFR (mouse) (mouse (endogenous in MH-S and BMDMs)); test: co-IP; endogenous proteins in WT BMDMs starved of M-CSF for 24 h and restimulated with M-CSF (50 ng/mL); NP-40 lysis buffer, Protein G-agarose; western blot
[4] = biological target: endogenous M-CSFR (human) (human (endogenous in THP-1)) (UniProt P07333); test: co-IP; endogenous proteins in PMA-stimulated THP-1 cells after stimulation with M-CSF; NP-40 lysis buffer, Protein G-agarose; western blot

| Substance | binding [1] | binding [2] | binding [3] | binding [4] |
| --- | --- | --- | --- | --- |
| Myc-Cbl-b (from UniProt Q3TTA7 1-982) (enzyme) | binds | – | – | – |
| endogenous Cbl-b (mouse) (from UniProt Q3TTA7 1-982) (enzyme) | – | binds | binds | – |
| endogenous c-Cbl (mouse) (from UniProt P22682 1-913) (enzyme) | – | binds | binds | – |
| Myc-c-Cbl (from UniProt P22682 1-913) (enzyme) | binds | – | – | – |
| endogenous Cbl-b (human) (from UniProt Q13191 1-982) (enzyme) | – | – | – | binds |
